Results published in publication doi:10.1101/2023.04.28.538690.
These are yes or no findings as the source states them, for the method shown. For part of these data: In cells and extracts the contact can be indirect. Some entries that bind do so weakly or less than the wild type. Sequences can lack the tags named with a protein.

T1: SECRET AGENT (SEC), full-length, 3xHA-tagged (35S::SEC-3xHA) (Arabidopsis thaliana) (UniProt Q9M8Y0)
T1 sequence: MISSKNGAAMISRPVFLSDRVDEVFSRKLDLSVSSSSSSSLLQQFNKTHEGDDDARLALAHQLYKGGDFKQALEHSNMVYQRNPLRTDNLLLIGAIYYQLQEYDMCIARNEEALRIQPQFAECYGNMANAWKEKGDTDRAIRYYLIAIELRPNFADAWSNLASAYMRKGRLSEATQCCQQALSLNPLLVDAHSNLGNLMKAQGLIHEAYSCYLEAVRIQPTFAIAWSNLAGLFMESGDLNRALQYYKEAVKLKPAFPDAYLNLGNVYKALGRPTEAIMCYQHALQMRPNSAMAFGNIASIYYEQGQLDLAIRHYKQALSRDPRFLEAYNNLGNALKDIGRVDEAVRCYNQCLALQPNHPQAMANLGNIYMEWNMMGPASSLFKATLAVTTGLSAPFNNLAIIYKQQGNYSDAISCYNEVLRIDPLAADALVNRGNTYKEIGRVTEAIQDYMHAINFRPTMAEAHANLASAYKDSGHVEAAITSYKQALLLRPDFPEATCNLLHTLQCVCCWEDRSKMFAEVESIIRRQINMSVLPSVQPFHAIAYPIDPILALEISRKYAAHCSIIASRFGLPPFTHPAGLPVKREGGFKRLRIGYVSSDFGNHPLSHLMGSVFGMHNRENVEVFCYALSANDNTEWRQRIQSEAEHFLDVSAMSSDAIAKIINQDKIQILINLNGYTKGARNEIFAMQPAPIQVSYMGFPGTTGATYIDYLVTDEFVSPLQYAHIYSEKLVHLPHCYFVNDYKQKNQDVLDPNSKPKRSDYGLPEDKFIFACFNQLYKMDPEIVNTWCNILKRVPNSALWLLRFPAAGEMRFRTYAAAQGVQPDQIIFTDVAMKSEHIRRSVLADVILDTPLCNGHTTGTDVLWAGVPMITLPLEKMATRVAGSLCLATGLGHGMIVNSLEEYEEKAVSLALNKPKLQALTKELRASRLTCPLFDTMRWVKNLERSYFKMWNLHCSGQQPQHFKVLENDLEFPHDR

T2: SPINDLY (SPY), full-length, 3xHA-tagged (35S::SPY-3xHA) (Arabidopsis thaliana) (UniProt Q96301)
T2 sequence: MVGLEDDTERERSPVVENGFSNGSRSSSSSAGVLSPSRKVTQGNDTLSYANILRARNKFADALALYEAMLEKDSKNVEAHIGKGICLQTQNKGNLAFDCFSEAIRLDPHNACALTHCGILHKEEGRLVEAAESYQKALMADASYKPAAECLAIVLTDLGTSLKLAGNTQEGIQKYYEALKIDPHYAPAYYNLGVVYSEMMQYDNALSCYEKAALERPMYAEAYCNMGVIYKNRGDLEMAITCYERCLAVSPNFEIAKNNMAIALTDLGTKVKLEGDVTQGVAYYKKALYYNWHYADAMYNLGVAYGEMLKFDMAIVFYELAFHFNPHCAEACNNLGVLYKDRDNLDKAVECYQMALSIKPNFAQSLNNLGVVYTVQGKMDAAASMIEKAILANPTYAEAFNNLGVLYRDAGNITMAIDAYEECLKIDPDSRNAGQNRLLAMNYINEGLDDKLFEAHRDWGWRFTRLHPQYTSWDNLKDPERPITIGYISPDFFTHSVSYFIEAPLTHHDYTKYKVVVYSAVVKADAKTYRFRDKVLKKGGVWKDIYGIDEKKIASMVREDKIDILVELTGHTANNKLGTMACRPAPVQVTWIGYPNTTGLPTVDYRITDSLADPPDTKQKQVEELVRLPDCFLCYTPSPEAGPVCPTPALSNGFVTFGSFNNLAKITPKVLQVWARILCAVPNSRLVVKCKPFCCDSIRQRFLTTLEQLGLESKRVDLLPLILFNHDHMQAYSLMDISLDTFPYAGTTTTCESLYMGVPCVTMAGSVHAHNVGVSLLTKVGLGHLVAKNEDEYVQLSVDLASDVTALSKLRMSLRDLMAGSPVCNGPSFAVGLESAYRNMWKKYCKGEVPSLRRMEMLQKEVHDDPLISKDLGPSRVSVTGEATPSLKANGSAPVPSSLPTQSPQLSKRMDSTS

T3: SPINDLY (SPY), full-length, yeast two-hybrid bait (BD) (Arabidopsis thaliana) (UniProt Q96301)
T3 sequence: T2 sequence

T4: SECRET AGENT (SEC), full-length, yeast two-hybrid bait (BD) (Arabidopsis thaliana) (UniProt Q9M8Y0)
T4 sequence: T1 sequence

T5: SECRET AGENT (SEC) fused to the C-terminal luciferase fragment (35S::SEC-Cluc) (Arabidopsis thaliana) (UniProt Q9M8Y0)
T5 sequence: T1 sequence

T6: SPINDLY (SPY) fused to the C-terminal luciferase fragment (35S::SPY-Cluc) (Arabidopsis thaliana) (UniProt Q96301)
T6 sequence: T2 sequence

B1: SPATULA (SPT), full-length, 3xFLAG-tagged (35S::SPT-3xFLAG) (protein, UniProt Q9FUA4 1-373)
chain: MISQREEREEKKQRVMGDKKLISSSSSSSVYDTRINHHLHHPPSSSDEISQFLRHIFDRSSPLPSYYSPATTTTTASLIGVHGSGDPHADNSRSLVSHHPPSDSVLMSKRVGDFSEVLIGGGSGSAAACFGFSGGGNNNNVQGNSSGTRVSSSSVGASGNETDEYDCESEEGGEAVVDEAPSSKSGPSSRSSSKRCRAAEVHNLSEKRRRSRINEKMKALQSLIPNSNKTDKASMLDEAIEYLKQLQLQVQMLTMRNGINLHPLCLPGTTLHPLQLSQIRPPEATNDPLLNHTNQFASTSNAPEMINTVASSYALEPSIRSHFGPFPLLTSPVEMSREGGLTHPRLNIGHSNANITGEQALFDGQPDLKDRIT
B2: SPT N-terminal domain (residues 1-180), yeast two-hybrid prey (AD) (domain or fragment, UniProt Q9FUA4 1-180)
chain: MISQREEREEKKQRVMGDKKLISSSSSSSVYDTRINHHLHHPPSSSDEISQFLRHIFDRSSPLPSYYSPATTTTTASLIGVHGSGDPHADNSRSLVSHHPPSDSVLMSKRVGDFSEVLIGGGSGSAAACFGFSGGGNNNNVQGNSSGTRVSSSSVGASGNETDEYDCESEEGGEAVVDEA
B3: SPT fragment containing only the Amphipathic domain (residues 1-135), yeast two-hybrid prey (AD) (domain or fragment, UniProt Q9FUA4 1-135)
chain: MISQREEREEKKQRVMGDKKLISSSSSSSVYDTRINHHLHHPPSSSDEISQFLRHIFDRSSPLPSYYSPATTTTTASLIGVHGSGDPHADNSRSLVSHHPPSDSVLMSKRVGDFSEVLIGGGSGSAAACFGFSGG
B4: SPT C-terminal truncation (residues 136-373), yeast two-hybrid prey (AD) (domain or fragment, UniProt Q9FUA4 136-373)
chain: GNNNNVQGNSSGTRVSSSSVGASGNETDEYDCESEEGGEAVVDEAPSSKSGPSSRSSSKRCRAAEVHNLSEKRRRSRINEKMKALQSLIPNSNKTDKASMLDEAIEYLKQLQLQVQMLTMRNGINLHPLCLPGTTLHPLQLSQIRPPEATNDPLLNHTNQFASTSNAPEMINTVASSYALEPSIRSHFGPFPLLTSPVEMSREGGLTHPRLNIGHSNANITGEQALFDGQPDLKDRIT
B5: SPATULA (SPT) fused to the N-terminal luciferase fragment (35S::SPT-Nluc) (protein, UniProt Q9FUA4 1-373)
chain: B1 chain
B6: SPATULA (SPT), full-length, yeast two-hybrid prey (AD) (protein, UniProt Q9FUA4 1-373)
chain: B1 chain

Experiments:
[1] = target: T1, SECRET AGENT (SEC), full-length, 3xHA-tagged (35S::SEC-3xHA) (Arabidopsis thaliana); assay: co-IP
[2] = target: T2, SPINDLY (SPY), full-length, 3xHA-tagged (35S::SPY-3xHA) (Arabidopsis thaliana); assay: co-IP
[3] = target: T3, SPINDLY (SPY), full-length, yeast two-hybrid bait (BD) (Arabidopsis thaliana); assay: two-hybrid
[4] = target: T4, SECRET AGENT (SEC), full-length, yeast two-hybrid bait (BD) (Arabidopsis thaliana); assay: two-hybrid
[5] = target: T5, SECRET AGENT (SEC) fused to the C-terminal luciferase fragment (35S::SEC-Cluc) (Arabidopsis thaliana); assay: split reporter
[6] = target: T6, SPINDLY (SPY) fused to the C-terminal luciferase fragment (35S::SPY-Cluc) (Arabidopsis thaliana); assay: split reporter

Binder | binding [3] | binding [4] | other results
B1 | – | – | binding [1]: binds; binding [2]: binds
B2 | binds | binds | –
B3 | binds | binds | –
B4 | no binding | binds | –
B5 | – | – | binding [5]: binds; binding [6]: binds
B6 | binds | binds | –
